Data taken from ChEMBL document CHEMBL1671789, “Evaluation of quinazoline analogues as glucocerebrosidase inhibitors with chaperone activity” (J Med Chem, 2011).

Tests used:
[1] = biological target: T1, Lysosomal acid glucosylceramidase (Homo sapiens) (UniProt P04062)
T1 sequence (whole entry): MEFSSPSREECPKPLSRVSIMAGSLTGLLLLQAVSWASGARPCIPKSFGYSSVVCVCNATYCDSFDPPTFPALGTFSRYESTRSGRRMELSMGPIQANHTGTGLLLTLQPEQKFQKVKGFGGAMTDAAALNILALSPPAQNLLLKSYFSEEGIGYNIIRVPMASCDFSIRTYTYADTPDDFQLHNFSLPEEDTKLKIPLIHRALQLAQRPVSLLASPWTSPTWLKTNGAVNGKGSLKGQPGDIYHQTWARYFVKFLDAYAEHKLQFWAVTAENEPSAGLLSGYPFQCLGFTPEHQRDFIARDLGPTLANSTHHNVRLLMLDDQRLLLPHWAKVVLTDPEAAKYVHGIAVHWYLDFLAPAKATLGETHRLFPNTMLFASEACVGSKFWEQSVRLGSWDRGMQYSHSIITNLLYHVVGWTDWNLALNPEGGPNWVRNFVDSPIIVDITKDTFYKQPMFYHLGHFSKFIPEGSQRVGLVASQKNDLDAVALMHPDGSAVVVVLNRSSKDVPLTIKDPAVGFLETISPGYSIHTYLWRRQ

[2] = biological target: T1, Lysosomal acid glucosylceramidase (Homo sapiens); remark: listed apart in the source
[3] = biological target: T1, Lysosomal acid glucosylceramidase (Homo sapiens); remark: listed apart in the source
[4] = biological target: T1, Lysosomal acid glucosylceramidase (Homo sapiens); remark: listed apart in the source
[5] = biological target: T1, Lysosomal acid glucosylceramidase (Homo sapiens); remark: listed apart in the source
[6] = biological target: T1, Lysosomal acid glucosylceramidase (Homo sapiens); remark: listed apart in the source
[7] = biological target: T1, Lysosomal acid glucosylceramidase (Homo sapiens); remark: listed apart in the source

ΔTm [1]: 0.5 °C
ΔTm [2]: 0.42 °C
ΔTm [3]: 0.29 °C
ΔTm [4]: -0.26 °C
ΔTm [5]: -0.3 °C
ΔTm [6]: 0.88 °C
ΔTm [7]: 0.43 °C
SMILES: Cc1ccc(S(=O)(=O)N2CCN(c3ncnc4ccccc34)CC2)cc1
